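Uptake of anthrax lethal toxin into cultured cells, read by FRET (460/530 nm ratio) and reported from the 460 nm channel; the cell line is not named here.
Each compound was tested as a concentration series from about 0.0005 to 40 µM.
The number is the fitted AC50 of the 460 nm signal alone; lower values mean a more potent effect. A falling signal goes with compounds filed as inhibitors or cytotoxic, a rising one with activators or fluorescent compounds (inferred from the filed classes).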

Values are in µM.
Common to all entries: measured here: 460 nm channel.
Part of the compounds only, not a random draw; the main read-out is not listed here.
Potencies fitted to partial, single-point or poorly fitting curves are rough.
The first word of each remark tells which way the curve ran; it can be opposite to the aim of the assay.

structure	AC50 (µM)	remark
O=C1CC2(CCCC2)CC(=O)N1CCNC[C@H]1COc2ccccc2O1	1.995	falling, full curve
CC(=O)c1cccc(NC(=O)Nc2cc3sccc3n2C)c1	7.943	falling, partial curve
Cc1cccc(-n2nc3c(c2NC(=O)c2ccc(Br)o2)CSC3)c1	12.59	rising, partial curve
C[C@@H]1O[C@H](O[C@@H]2C=C3CC[C@H]4[C@@H](CC[C@]5(C)[C@@H](c6ccc(=O)oc6)CC[C@]45O)[C@@]3(C)CC2)[C@@H](O)[C@H](O)[C@@H]1O	0.07943	falling, full curve
Clc1ccc(-c2nc(NCCN3CCOCC3)c3ccccc3n2)cc1	31.62	falling, single point
c1ccc2c(c1)NC1(CCCC1)n1c-2nc2ccccc21	2.512	rising, partial curve, poor fit
CCOC(=O)C1CCN(CC(=O)c2c(C)[nH]c3cc(C)ccc23)CC1	0.07943	rising, full curve, poor fit
Cc1cccc2cc3c(nc12)SC(=NCC1CCCO1)N(Cc1ccco1)C3 (centres undefined)	0.2512	falling, partial curve
CCOC(=O)C(NC(=O)c1ccc(OC)cc1)(OCC1(CC)COC1)C(F)(F)F (centres undefined)	5.012	falling, full curve
O=C(c1ccncc1)N(Cc1ccco1)Cc1cc2ccccc2[nH]c1=O	5.012	falling, single point
CCn1c(SCC(=O)Nc2ccc3c(c2)c2ccccc2n3CC)nnc1-c1ccco1	0.01	falling, partial curve
Cc1nc(NCc2ccc3c(c2)OCO3)c2oc3ccccc3c2n1	25.12	rising, single point
CCC(C(=O)c1ccc(O)cc1)c1ccccc1 (centres undefined)	0.1259	rising, full curve, poor fit
CCOC(=O)CNC(=O)C(CO)NC(=O)OCc1ccccc1 (centres undefined)	10	rising, partial curve
CCOCCCN(C(=O)c1ccco1)C(C(=O)NC1CCCC1)c1cccc(OC)c1OC (centres undefined)	15.85	rising, single point
Cc1cnc(CNc2ccnc(-c3ccccc3CN(C)C)n2)cn1	3.162	falling, partial curve
O=C(CSc1nnc(-c2cccnc2)n1-c1ccccc1)Nc1ccc2c(c1)OCO2	12.59	falling, single point
COc1ccc(-c2noc(CSc3nnc(Cc4ccccc4)n3-c3cccc(C)c3)n2)cc1OC	5.012	rising, single point
S=C(Nc1ccccc1)Nc1ccccc1C#Cc1ccccc1	12.59	falling, partial curve
COC(=O)[C@@H]1C[C@H]1[C@@H](NP(=O)(c1ccccc1)c1ccccc1)c1ccccc1	1	falling, full curve
O=c1c(-c2cccs2)nc2cnc(N3CCNCC3)nc2n1CCc1ccccc1	0.3981	rising, full curve
COC(=O)c1ccc(NC(=O)CSc2nnc(-c3ccncc3)n2C)cc1	5.012	rising, single point
CCc1c(C)nc2ncnn2c1NCCc1ccc(OC)cc1	5.012	falling, partial curve
COc1ccccc1NC(=O)Cn1cnc2sc(C(=O)NCc3ccco3)c(C)c2c1=O	0.5012	rising, single point
COC(=O)C1=CNC=C(C(=O)OC)C1c1ccccc1Cl	10	rising, partial curve
CN(CCC(=O)O)C1=Nc2ccc(Cl)cc2C(c2ccccc2)=[N+]([O-])C1	0.1	falling, single point
CSc1ccc2c(c1)N(CC[C@H]1CCCCN1C)c1ccccc1S2	25.12	falling, partial curve
Cc1cccc(N2CCCn3c2nc2c3c(=O)n(CC(=O)OCc3ccccc3)c(=O)n2C)c1	1.995	rising, full curve, poor fit
Cc1cccc2cc(C(c3nnnn3Cc3ccc4c(c3)OCO4)N3CCCC3)c(=O)[nH]c12 (centres undefined)	5.012	falling, partial curve
CC1CCN(CC(O)COC2CCC(C(C)(C)C)CC2)CC1 (centres undefined)	19.95	falling, single point
COc1ccc(CCNc2oc(COc3ccccc3F)nc2C#N)cc1	12.59	falling, partial curve
CN1/C(=C/C(=O)c2nc(S(C)(=O)=O)ncc2Cl)C(C)(C)c2ccccc21	10	falling, partial curve
CN(C)CCNS(=O)(=O)N(C)C	0.1995	falling, single point
O=S(=O)(c1ccc2ccccc2c1)N1CCCCC1	0.07943	falling, full curve, poor fit
CCn1nc(C(=O)Nc2ccc(S(=O)(=O)Nc3nccs3)cc2)c2ccccc2c1=O	10	rising, single point
CC1=C2C(=O)[C@@H]3[C@@H](CC=C4C[C@@H](O)CC[C@@]43C)[C@H]2CC[C@@]12O[C@H]1C[C@H](C)CN[C@H]1[C@@H]2C	1	falling, single point
CCN(CC)CC(=O)Nc1cc(C)c2c(=O)oc3ccccc3c2n1	5.012	rising, partial curve
O=C1[C@H]2[C@H]3[C@H](O)[C@H](O)C/C(=N/OC[C@@H](O)COCc4ccco4)[C@@H]3CC[C@@H]2C(=O)N1Cc1ccc2c(c1)OCO2	1.259	rising, single point
Cc1ccccc1-c1noc(-c2ccc(O)cc2)n1	12.59	falling, partial curve

Repeated from the top, 4 entries:

structure,AC50 (µM),remark
O=C1CC2(CCCC2)CC(=O)N1CCNC[C@H]1COc2ccccc2O1,1.995,"falling, full curve"
CC(=O)c1cccc(NC(=O)Nc2cc3sccc3n2C)c1,7.943,"falling, partial curve"
Cc1cccc(-n2nc3c(c2NC(=O)c2ccc(Br)o2)CSC3)c1,12.59,"rising, partial curve"
C[C@@H]1O[C@H](O[C@@H]2C=C3CC[C@H]4[C@@H](CC[C@]5(C)[C@@H](c6ccc(=O)oc6)CC[C@]45O)[C@@]3(C)CC2)[C@@H](O)[C@H](O)[C@@H]1O,0.07943,"falling, full curve"

Data taken from PubChem BioAssay AID912, deposited by NCATS (2007).